Data from PMC4758748.
Results are given in words; binding and its absence hold for the method and conditions named. A result given as binding can be weak or reduced; the word gives no strength. Where a sequence is shown, tags or fusion partners need not be part of it.

Key:
[1] = biological target: T1, Chs2-215-629 (two-hybrid fusion) (S. cerevisiae) (UniProt P14180); test: two-hybrid; vectors pGADT7 and pGBKT7 (Clontech); growth for two or three days at 30°C on Synthetic Complete medium lacking leucine, tryptophan and histidine (selective)
T1 sequence: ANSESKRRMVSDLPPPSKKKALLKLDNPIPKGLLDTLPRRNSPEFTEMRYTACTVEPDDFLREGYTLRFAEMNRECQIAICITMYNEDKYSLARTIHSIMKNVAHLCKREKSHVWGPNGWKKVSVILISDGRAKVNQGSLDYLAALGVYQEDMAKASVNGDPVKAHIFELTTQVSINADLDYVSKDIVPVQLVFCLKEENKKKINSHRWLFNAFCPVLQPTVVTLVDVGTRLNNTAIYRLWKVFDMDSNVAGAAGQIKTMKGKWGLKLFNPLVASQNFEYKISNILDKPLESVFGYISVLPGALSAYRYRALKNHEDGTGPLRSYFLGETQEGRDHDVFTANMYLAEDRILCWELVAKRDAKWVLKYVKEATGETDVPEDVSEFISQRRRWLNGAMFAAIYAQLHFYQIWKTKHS

[2] = biological target: T2, Chs2-1-629 (two-hybrid fusion) (S. cerevisiae) (UniProt P14180); test: as above
T2 sequence: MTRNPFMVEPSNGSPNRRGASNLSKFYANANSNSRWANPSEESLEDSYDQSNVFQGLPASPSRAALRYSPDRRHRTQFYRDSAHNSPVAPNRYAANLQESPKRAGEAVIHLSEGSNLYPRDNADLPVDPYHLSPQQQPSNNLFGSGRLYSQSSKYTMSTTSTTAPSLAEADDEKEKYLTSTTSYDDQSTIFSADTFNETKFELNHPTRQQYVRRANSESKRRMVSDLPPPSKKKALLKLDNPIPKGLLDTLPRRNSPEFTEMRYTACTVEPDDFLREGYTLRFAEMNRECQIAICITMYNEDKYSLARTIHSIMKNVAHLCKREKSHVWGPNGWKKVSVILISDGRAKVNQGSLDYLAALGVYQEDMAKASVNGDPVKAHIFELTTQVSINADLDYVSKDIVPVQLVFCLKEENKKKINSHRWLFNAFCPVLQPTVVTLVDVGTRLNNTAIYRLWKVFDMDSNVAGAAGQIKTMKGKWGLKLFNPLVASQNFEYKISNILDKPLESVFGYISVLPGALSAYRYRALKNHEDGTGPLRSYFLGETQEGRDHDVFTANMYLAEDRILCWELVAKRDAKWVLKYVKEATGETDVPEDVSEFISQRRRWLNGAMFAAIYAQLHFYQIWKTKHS

binding [1]: binds | binding [2]: binds
Substance: Cyk3-2A (transglutaminase-like domain mutant, two-hybrid fusion) (S. cerevisiae) (domain or fragment)
